Reference: PMC2919383
No constants are given. Whether binding was seen depends on the method and setting. In cells and extracts the contact can be indirect. Some entries that bind do so weakly or less than the wild type.

Amino acid sequences for entries named in this document (tags omitted).
UniProt P26040: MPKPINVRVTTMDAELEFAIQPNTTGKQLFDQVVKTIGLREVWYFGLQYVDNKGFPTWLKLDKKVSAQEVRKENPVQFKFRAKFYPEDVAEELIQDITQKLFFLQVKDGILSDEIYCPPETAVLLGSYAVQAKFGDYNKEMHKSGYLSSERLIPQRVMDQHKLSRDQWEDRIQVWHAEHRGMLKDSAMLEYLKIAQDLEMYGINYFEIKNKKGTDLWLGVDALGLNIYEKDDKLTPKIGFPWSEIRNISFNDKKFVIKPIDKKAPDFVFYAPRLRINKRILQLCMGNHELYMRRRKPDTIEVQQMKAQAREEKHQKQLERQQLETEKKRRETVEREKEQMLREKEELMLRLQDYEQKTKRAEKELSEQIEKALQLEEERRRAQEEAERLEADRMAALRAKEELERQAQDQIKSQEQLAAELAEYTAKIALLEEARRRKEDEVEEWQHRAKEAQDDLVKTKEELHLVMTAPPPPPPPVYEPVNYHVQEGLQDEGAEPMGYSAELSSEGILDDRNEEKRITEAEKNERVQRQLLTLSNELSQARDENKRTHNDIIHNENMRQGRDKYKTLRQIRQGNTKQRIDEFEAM
UniProt Q9JHL1: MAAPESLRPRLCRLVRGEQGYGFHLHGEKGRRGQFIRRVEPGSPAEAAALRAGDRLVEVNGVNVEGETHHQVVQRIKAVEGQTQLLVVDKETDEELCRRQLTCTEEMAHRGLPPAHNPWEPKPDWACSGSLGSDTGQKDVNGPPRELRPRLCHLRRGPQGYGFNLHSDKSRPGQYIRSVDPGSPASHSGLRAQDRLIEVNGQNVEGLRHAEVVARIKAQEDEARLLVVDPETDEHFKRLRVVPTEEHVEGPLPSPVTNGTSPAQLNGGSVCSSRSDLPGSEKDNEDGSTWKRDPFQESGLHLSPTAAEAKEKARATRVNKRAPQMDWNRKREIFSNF
UniProt Q9QUI0: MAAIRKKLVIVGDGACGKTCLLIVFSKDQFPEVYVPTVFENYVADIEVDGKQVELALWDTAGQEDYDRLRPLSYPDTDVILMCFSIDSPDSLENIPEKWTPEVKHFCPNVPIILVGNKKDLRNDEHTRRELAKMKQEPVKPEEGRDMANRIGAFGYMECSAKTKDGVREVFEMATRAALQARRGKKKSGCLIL
UniProt P84096: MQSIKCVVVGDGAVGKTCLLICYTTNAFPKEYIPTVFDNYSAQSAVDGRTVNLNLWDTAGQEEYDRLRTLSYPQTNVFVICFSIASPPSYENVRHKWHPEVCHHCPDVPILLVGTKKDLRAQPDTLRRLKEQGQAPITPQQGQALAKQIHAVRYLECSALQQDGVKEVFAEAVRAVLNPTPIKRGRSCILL

T1: Podocalyxin (mouse (endogenous in E16 forebrain)) (UniProt Q9R0M4)
T1 sequence: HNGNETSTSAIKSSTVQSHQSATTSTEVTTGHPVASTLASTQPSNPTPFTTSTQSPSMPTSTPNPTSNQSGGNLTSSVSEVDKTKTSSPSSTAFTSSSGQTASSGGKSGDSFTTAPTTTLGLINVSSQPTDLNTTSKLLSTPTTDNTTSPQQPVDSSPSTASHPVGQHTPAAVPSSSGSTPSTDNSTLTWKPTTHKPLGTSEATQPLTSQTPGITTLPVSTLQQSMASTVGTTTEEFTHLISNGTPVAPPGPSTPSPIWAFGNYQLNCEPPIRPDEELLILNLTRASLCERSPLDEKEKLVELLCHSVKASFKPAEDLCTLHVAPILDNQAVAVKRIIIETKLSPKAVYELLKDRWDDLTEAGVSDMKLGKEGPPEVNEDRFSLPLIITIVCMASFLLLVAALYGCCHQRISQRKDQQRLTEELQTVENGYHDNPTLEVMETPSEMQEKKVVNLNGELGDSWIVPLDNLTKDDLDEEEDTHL

B1: sodium-hydrogen exchanger regulatory factor 1 (protein, UniProt P70441 1-355)
chain: MSADAAAGEPLPRLCCLEKGPNGYGFHLHGEKGKVGQFIRLVEPGSPAEKSGLLAGDRLVEVNGENVEKETHQQVVSRIRAALNAVRLLVVDPETDERLKKLGVSIREELLRPQEKSEQAEPPAAADTHEAGDQNEAEKSHLRELRPRLCTMKKGPNGYGFNLHSDKSKPGQFIRAVDPDSPAEASGLRAQDRIVEVNGVCMEGKQHGDVVSAIKGGGDEAKLLVVDKETDEFFKKCKVIPSQEHLDGPLPEPFSNGEIQKESSREALVEPASESPRPALARSASSDTSEELNSQDSPKRQVSTEPSSTSSSSSDPILDLNISLAVAKERAHQKRSSKRAPQMDWSKKNELFSNL

Target: T1, Podocalyxin (mouse (endogenous in E16 forebrain))
Assay: co-IP; E16 mouse forebrain lysates (1% Triton-100 buffer), 300 µg total protein per sample; antibody and protein G-Sepharose beads 2 h at 4°C; five washes with 10 mM Tris pH 8, 500 mM NaCl, 1% Triton X-100, 0.5% NP-40; SDS-PAGE and Western blot

binding, binds:
Ezrin (from UniProt P26040 1-586), Na+/H+-Exchanger Regulatory Factor 2 (from UniProt Q9JHL1 1-337), RhoA (from UniProt Q9QUI0 1-193), RhoG (from UniProt P84096 1-191), B1
